Measured data: PubChem BioAssay AID1259327 (Drosophila RNAi Screening Center, 2017)
Aim: 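Data from controls in screens of zinc and manganese toxicity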. System: Drosophila S2R+ cells. Reagents: long dsRNA against Drosophila genes. Duration: 5 days (water added on day 4, read one day later). Treatment: water added as vehicle, no metal, one day before read-out. Read-out: 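Luciferase ATP signal per well, normalised to plate mean, duplicate average converted to z-score across plates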. Direction: ATP z-score: higher = more total ATP than typical wells; ATP luminescence: higher = more total ATP. Hit rule: 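Called active when the ATP z-score exceeds 1.5 or falls below -1.5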. Calls: active = hit: ATP up or down; inactive = no clear ATP change.
Shown is a random part of about 3,100 deposited reagents. 378 of them (12%) count as active. 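Hits include both directions; z-score sign shows ATP rise or fall; raw luminescence values are not plate-normalised.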 No sequences are given here. Not stated in the record: the amount of reagent.

Gene	dsRNA	ATP z-score, duplicate mean	ATP luminescence, replicate 1 (RLU)	ATP luminescence, replicate 2 (RLU)	call
Sc2	DRSC08162	0.311	7.20e5	8.10e5	inactive
Sc2	DRSC26153	-0.394	8.27e5	7.75e5	inactive
Rab3-GEF (Rab3 GDP-GTP exchange factor)	DRSC19954	0.178	5.36e5	6.94e5	inactive
Rab3-GEF (Rab3 GDP-GTP exchange factor)	DRSC19955	0.156	7.38e5	7.83e5	inactive
Rab3-GEF (Rab3 GDP-GTP exchange factor)	DRSC27720	0.541	8.56e5	1.33e6	inactive
CG14857	DRSC14981	0.382	3.26e5	7.78e5	inactive
CG14857	DRSC39636	-1.28	3.84e5	3.72e5	inactive
Ac3 (Adenylate cyclase 3)	DRSC03692	1.11	8.97e5	8.01e5	inactive
Ac3 (Adenylate cyclase 3)	DRSC39826	0.443	5.43e5	4.75e5	inactive
5-HT1A (5-hydroxytryptamine (serotonin) receptor 1A)	DRSC05030	-1.36	4.72e5	5.21e5	inactive
5-HT1A (5-hydroxytryptamine (serotonin) receptor 1A)	DRSC26404	0.503	1.01e6	1.07e6	inactive
CG9747	DRSC23910	-0.954	6.77e5	7.86e5	inactive
CG9747	DRSC39676	-1.79	3.69e5	3.17e5	active
GABA-B-R2 (metabotropic GABA-B receptor subtype 2)	DRSC28127	1.73	1.04e6	1.06e6	active
GABA-B-R2 (metabotropic GABA-B receptor subtype 2)	DRSC39461	-2.05	3.24e5	3.10e5	active
arr (arrow)	DRSC07451	-1.83	4.40e5	4.67e5	active
arr (arrow)	DRSC27035	0.804	7.43e5	8.64e5	inactive
Gr93d (Gustatory receptor 93d)	DRSC21941	1.26	7.65e5	6.06e5	inactive
Shawl (Shaw-like)	DRSC02209	1.38	8.62e5	8.82e5	inactive
Shawl (Shaw-like)	DRSC02748	-0.068	8.90e5	8.84e5	inactive
Shawl (Shaw-like)	DRSC24307	0.83	1.08e6	7.77e5	inactive
Hacd2 (3-hydroxyacyl-CoA dehydratase 2)	DRSC03181	-0.349	7.16e5	6.63e5	inactive
Nckx30C	DRSC02686	-1.26	6.01e5	5.85e5	inactive
Nckx30C	DRSC02687	0.518	7.54e5	8.08e5	inactive
Nckx30C	DRSC02688	1.87	1.07e6	1.21e6	active
SIFaR (SIFamide receptor)	DRSC13467	0.0873	3.66e5	6.12e5	inactive
SIFaR (SIFamide receptor)	DRSC14266	-0.0267	2.94e5	7.70e5	inactive
CG18635	DRSC06780	0.0963	7.45e5	7.28e5	inactive
CG18635	DRSC25971	0.684	8.07e5	1.06e6	inactive
nan (nanchung)	DRSC10551	0.022	9.33e5	8.65e5	inactive
nan (nanchung)	DRSC39690	-0.383	4.32e5	4.46e5	inactive
CG1724	DRSC20548	-0.96	6.33e5	6.44e5	inactive
CG1724	DRSC25668	-0.0225	8.46e5	7.96e5	inactive
Osi10b (Osiris 10b)	DRSC12279	-0.82	8.30e5	7.49e5	inactive
Osi10b (Osiris 10b)	DRSC39619	0.0333	4.26e5	5.10e5	inactive
CG9717	DRSC16543	-1.01	5.75e5	1.00e6	inactive
CG14195	DRSC19550	-0.443	6.39e5	7.54e5	inactive
CG14195	DRSC39887	0.18	5.08e5	7.02e5	inactive
GC (gamma-glutamyl carboxylase)	DRSC08396	1.08	7.56e5	6.80e5	inactive
GC (gamma-glutamyl carboxylase)	DRSC27222	-0.684	9.32e5	9.73e5	inactive
mthl15 (methuselah-like 15)	DRSC01120	0.383	7.79e5	7.89e5	inactive
mthl15 (methuselah-like 15)	DRSC39743	-0.597	4.28e5	4.21e5	inactive
Gr89a (Gustatory receptor 89a)	DRSC15023	-0.276	2.67e5	7.82e5	inactive
Gr89a (Gustatory receptor 89a)	DRSC39468	-0.203	4.68e5	4.12e5	inactive
Lar (Leukocyte-antigen-related-like)	DRSC01707	-0.348	6.99e5	7.11e5	inactive
Lar (Leukocyte-antigen-related-like)	DRSC03361	0.00172	5.68e5	3.84e5	inactive
Lar (Leukocyte-antigen-related-like)	DRSC36994	1.29	7.04e5	6.74e5	inactive

Sorted by “ATP luminescence, replicate 2 (RLU)” (lowest first): 5 of the entries above
Gene	dsRNA	ATP z-score, duplicate mean	ATP luminescence, replicate 1 (RLU)	ATP luminescence, replicate 2 (RLU)	call
CG14857	DRSC39636	-1.28	3.84e5	3.72e5	inactive
CG14857	DRSC14981	0.382	3.26e5	7.78e5	inactive
Rab3-GEF (Rab3 GDP-GTP exchange factor)	DRSC19955	0.156	7.38e5	7.83e5	inactive
Ac3 (Adenylate cyclase 3)	DRSC03692	1.11	8.97e5	8.01e5	inactive
Rab3-GEF (Rab3 GDP-GTP exchange factor)	DRSC27720	0.541	8.56e5	1.33e6	inactive
